The values below come from the supplement of paper PMC10849652.

Chains of the proteins cited; added tags and fusions are not shown. Lines headed by an entry give the natural chain unless they say otherwise; changes in a name come on top.
UniProt P06493, whole entry, looked up: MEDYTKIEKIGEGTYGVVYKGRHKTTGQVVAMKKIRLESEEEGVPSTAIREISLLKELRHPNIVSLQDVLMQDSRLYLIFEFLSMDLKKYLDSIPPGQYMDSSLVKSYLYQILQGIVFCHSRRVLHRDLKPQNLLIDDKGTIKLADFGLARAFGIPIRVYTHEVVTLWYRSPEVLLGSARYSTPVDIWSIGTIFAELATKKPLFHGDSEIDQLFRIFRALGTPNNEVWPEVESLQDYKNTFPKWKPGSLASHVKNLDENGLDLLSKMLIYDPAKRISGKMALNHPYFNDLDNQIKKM
UniProt Q5VT25: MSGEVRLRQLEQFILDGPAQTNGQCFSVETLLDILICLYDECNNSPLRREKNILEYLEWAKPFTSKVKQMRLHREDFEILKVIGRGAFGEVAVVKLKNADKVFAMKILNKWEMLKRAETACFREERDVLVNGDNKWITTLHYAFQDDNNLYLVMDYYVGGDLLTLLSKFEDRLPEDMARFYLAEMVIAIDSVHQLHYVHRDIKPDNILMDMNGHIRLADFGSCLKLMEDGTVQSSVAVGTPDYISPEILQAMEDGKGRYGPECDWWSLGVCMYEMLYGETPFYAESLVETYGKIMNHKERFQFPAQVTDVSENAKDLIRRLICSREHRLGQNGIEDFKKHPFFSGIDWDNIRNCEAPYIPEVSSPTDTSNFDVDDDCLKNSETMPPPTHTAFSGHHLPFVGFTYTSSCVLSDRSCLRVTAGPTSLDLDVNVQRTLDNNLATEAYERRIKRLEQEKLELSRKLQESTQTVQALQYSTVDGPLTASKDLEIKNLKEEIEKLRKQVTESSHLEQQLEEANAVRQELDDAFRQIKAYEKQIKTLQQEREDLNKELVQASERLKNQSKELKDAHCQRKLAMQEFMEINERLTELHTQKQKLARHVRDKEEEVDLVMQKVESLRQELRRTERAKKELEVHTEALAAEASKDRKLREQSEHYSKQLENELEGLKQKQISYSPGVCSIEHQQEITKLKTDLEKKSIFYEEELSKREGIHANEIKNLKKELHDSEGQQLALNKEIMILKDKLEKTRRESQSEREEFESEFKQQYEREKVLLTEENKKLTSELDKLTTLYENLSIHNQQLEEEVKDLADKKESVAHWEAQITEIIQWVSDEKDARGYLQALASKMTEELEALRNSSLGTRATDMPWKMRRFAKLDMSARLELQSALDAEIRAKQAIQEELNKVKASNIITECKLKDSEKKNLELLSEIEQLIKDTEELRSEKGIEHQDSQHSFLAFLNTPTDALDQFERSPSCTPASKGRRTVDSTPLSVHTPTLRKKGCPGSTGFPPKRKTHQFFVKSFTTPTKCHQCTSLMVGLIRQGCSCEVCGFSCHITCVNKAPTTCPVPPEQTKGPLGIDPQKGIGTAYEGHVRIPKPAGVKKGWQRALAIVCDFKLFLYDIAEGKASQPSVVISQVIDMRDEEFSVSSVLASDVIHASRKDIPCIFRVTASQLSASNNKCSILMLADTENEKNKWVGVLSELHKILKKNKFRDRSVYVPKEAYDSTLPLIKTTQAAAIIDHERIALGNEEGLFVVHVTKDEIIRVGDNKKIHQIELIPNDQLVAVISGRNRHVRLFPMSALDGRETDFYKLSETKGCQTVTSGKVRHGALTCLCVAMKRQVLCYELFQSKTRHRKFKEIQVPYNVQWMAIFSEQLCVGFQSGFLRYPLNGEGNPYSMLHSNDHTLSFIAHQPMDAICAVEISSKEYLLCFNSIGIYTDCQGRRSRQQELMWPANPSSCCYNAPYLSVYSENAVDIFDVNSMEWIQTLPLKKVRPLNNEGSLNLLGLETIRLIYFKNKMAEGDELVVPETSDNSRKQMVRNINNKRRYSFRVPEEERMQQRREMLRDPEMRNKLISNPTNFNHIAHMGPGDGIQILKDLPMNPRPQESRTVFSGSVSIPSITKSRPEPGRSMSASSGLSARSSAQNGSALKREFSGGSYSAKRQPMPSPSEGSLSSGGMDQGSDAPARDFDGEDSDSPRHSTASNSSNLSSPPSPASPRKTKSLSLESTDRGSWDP
UniProt Q8TAP6: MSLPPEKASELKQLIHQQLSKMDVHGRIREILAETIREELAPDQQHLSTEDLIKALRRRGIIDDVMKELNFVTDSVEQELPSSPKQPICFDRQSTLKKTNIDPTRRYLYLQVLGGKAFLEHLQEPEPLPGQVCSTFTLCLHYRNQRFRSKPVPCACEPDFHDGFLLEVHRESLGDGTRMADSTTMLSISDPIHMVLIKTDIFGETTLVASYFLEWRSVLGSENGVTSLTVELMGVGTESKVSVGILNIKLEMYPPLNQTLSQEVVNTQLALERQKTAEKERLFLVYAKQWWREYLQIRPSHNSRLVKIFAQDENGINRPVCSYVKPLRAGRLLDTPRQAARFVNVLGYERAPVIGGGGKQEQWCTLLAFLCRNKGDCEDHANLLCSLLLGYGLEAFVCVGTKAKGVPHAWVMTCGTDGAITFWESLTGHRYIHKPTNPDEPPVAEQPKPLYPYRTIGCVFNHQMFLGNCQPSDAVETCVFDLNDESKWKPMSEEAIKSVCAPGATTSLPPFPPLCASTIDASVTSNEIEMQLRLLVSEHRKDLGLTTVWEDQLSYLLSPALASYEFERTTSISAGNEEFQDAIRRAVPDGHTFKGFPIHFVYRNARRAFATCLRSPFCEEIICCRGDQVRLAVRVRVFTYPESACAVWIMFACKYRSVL
UniProt Q99459: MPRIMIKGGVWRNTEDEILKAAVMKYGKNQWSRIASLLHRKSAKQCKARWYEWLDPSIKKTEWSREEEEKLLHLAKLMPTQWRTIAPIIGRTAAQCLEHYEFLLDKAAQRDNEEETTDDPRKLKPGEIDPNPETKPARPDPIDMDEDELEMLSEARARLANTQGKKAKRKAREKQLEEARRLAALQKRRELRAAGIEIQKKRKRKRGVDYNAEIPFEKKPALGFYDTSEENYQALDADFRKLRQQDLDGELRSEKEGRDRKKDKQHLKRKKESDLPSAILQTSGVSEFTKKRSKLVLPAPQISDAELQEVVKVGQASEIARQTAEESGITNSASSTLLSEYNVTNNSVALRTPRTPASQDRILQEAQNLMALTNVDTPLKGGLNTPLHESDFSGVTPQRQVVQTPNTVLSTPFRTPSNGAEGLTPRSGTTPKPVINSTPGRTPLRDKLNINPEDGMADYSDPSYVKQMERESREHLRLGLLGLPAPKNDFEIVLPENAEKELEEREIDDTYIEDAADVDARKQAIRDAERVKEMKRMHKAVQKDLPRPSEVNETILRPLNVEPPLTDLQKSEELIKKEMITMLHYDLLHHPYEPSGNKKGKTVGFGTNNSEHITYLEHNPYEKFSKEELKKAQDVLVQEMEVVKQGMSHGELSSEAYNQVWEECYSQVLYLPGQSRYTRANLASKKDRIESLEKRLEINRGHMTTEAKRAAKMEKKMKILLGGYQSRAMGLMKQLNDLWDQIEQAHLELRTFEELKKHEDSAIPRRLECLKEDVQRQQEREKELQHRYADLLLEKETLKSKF
UniProt Q8IWY9: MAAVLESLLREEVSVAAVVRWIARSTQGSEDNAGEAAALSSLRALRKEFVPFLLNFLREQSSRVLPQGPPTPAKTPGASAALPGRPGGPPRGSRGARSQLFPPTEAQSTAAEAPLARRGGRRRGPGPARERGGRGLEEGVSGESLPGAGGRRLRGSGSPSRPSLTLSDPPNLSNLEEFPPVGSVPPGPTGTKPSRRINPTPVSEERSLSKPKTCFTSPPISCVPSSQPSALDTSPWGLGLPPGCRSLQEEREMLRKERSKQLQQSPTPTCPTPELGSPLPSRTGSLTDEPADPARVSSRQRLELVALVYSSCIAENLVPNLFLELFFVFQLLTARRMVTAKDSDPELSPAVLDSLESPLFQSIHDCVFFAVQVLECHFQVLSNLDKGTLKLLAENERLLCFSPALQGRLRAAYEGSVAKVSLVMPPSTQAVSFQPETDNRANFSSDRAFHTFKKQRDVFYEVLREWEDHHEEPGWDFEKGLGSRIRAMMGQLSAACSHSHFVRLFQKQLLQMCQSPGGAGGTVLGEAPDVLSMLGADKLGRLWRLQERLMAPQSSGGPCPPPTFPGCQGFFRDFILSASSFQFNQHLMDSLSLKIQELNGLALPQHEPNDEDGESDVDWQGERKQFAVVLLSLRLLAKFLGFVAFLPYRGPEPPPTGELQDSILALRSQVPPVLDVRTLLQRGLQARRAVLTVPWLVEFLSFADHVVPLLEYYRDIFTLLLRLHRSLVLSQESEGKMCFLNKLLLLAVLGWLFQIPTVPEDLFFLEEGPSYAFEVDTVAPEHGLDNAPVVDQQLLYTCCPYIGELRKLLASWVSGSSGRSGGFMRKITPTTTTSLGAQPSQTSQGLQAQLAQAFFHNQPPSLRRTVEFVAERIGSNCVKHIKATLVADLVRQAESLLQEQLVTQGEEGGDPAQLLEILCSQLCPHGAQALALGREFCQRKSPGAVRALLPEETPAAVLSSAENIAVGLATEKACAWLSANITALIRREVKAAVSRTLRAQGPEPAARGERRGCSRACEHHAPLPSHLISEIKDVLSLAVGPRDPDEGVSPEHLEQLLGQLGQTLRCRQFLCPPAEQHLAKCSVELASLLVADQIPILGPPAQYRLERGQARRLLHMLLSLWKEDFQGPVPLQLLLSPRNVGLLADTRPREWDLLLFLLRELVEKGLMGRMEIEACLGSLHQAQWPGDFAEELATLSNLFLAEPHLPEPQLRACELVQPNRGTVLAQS
UniProt Q00535, whole entry, looked up: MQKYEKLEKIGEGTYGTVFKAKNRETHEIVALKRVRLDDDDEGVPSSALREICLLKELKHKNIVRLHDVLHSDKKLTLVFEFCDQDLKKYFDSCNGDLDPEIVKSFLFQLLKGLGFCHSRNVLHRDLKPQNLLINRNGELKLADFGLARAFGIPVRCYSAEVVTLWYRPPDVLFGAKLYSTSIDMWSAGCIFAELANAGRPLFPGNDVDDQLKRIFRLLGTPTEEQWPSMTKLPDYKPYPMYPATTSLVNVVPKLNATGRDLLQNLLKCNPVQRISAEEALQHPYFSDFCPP
UniProt Q9NYV4, whole entry, looked up: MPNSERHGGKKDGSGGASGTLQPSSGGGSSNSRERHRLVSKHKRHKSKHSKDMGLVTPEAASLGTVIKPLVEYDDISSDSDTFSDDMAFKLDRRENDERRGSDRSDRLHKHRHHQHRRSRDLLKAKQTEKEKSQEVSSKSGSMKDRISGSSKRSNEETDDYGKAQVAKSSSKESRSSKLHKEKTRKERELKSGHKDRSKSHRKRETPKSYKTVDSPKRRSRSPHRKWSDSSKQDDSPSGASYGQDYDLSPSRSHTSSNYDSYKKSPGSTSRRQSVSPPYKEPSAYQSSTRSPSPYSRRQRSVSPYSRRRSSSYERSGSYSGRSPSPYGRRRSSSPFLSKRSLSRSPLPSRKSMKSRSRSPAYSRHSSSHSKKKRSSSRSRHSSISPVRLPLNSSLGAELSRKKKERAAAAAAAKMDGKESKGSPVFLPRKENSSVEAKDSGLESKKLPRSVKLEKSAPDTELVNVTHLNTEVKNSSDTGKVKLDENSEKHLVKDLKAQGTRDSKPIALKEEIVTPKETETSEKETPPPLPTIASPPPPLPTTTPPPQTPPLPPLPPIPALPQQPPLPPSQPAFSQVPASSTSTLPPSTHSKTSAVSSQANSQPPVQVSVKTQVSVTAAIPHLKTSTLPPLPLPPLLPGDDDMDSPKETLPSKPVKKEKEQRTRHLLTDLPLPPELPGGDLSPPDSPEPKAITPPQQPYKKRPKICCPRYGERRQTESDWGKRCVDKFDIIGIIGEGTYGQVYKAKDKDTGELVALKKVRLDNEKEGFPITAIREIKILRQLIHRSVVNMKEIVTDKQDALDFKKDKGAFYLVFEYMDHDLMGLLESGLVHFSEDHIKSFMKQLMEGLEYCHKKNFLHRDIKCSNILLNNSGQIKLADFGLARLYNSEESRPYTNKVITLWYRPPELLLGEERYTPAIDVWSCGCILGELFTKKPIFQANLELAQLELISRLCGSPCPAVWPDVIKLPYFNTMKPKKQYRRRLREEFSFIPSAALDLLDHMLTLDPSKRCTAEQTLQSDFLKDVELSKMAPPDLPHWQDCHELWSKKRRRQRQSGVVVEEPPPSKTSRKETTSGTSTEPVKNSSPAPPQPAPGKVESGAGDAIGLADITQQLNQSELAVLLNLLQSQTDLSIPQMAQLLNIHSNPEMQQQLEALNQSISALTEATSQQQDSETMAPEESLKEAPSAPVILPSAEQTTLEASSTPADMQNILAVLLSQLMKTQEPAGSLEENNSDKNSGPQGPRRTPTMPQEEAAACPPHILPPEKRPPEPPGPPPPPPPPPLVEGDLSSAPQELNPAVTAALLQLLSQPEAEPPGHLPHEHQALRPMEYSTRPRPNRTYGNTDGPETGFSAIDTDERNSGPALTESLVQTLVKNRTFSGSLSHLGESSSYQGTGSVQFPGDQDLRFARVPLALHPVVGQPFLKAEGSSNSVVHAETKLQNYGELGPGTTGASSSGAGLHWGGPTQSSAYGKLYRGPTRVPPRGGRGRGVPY

The other results are listed elsewhere or left out.

Compound in one test: Cc1ccc(NC(=O)c2ccc(CN3CC[C@H](N(C)C)C3)c(C(F)(F)F)c2)cc1Nc1nccc(-c2cncnc2)n1 [bafetinib]
The test can be described thus: log2 fold change, soluble protein after heating vs DMSO (PISA); higher = thermal stabilisation; K562 lysate, 10 uM; active = over 0.2 and 3.5 SD of the protein, either way, in both replicates (recomputed). In outline: (§1)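 K562 pellets were dounce-homogenised in PBS pH 7.4 containing 1 mM MgCl2, and the crude extract, at 1 mg/mL protein, was exposed to 10 μM compound for 30 min. Aliquots were heated for 3 min across 48°C-58°C, pooled, brought to 0.5% NP-40 at 4°C and spun at 21,000xg for 90 min, with the supernatant taken as soluble protein. TMTpro 16plex LC-MS/MS with equalised channel sums quantified that protein. Values are log-two fold changes in thermal stability relative to solvent controls, taken from duplicates.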
In the case of CDC42EP1 (UniProt Q00587), the log2 fold change is inactive: -0.012.
Same read-out and setting: next, CDCA2 (UniProt Q69YH5): inactive: -0.073.
Same read-out and setting: next, CEP192 (UniProt Q8TEP8): inactive: -0.122; CEP85 isoform 2 (UniProt Q6P2H3): inactive: -0.135; CDC34 (UniProt P49427): inactive: -0.037.
On the same count and under the same terms, the value for CENPU (UniProt Q71F23) was inactive: 0.043.
On to CENPK (UniProt Q9BS16), for which the log2 fold change was inactive: -0.004.
Consider CDK1 (UniProt P06493), for which the log2 fold change is inactive: -0.016.
CEP44 (UniProt Q9C0F1): the log2 fold change was inactive: -0.002.
Still for that read-out and setting: next, CDC42BPA isoform 6 (UniProt Q5VT25): inactive: -0.056.
For CEP76 (UniProt Q8TAP6), the log2 fold change was inactive: -0.115.
The same measure, in the same setting: next, CEP120 (UniProt Q8N960): inactive: -0.257.
On the same count and under the same terms, next, CDC45 isoform 3 (UniProt O75419): inactive: -0.077; CDC37 (UniProt Q16543): inactive: 0.004.
On the same count and under the same terms, next, CEP97 (UniProt Q8IW35): inactive: -0.115; CDC5L (UniProt Q99459): inactive: -0.04.
CDR2 (UniProt Q01850): the log2 fold change was inactive: -0.026.
Still for that read-out and setting: next, CFAP36 (UniProt Q96G28): inactive: 0.015.
On the same count and under the same terms, next, CERT isoform 3 (UniProt Q9Y5P4): inactive: -0.015; CDAN1 (UniProt Q8IWY9): inactive: -0.056.
In the case of CES2 isoform 4 (UniProt O00748), the log2 fold change is inactive: 0.154.
The same measure, in the same setting: the value for CDK5 (UniProt Q00535) was inactive: -0.008; that for CHAC2 (UniProt Q8WUX2) was inactive: -0.018; that for CDK12 (UniProt Q9NYV4) was inactive: -0.031.
The same measure, in the same setting: next, CDC73 (UniProt Q6P1J9): inactive: -0.029; CDK6 (UniProt Q00534): inactive: 0.005.
CDK7 (UniProt P50613): the log2 fold change was inactive: -0.011.
As to CDCA5 (UniProt Q96FF9), the log2 fold change is inactive: -0.098.
Turning to CERS6 isoform 2 (UniProt Q6ZMG9), the log2 fold change is inactive: 0.063.
Same read-out and setting: the value for CFAP298 (UniProt P57076) was inactive: -0.051.
On to CDK5RAP3 isoform 4 (UniProt Q96JB5), for which the log2 fold change was inactive: -0.02.
On the same count and under the same terms, the value for CELF2 isoform 3 (UniProt O95319) was inactive: -0.042.

Compound in the next test: Cc1cccc(CC(=O)N2CCc3c2ccc(-c2cn(C)c4ncnc(N)c24)c3F)n1
The description is as above. Put shortly:
as §1
Take CDC42EP1 (UniProt Q00587): the log2 fold change was inactive: 0.117.
The same measure, in the same setting: next, CDCA2 (UniProt Q69YH5): inactive: -0.027.
The same measure, in the same setting: the value for CEP192 (UniProt Q8TEP8) was inactive: 0.159; that for CEP85 isoform 2 (UniProt Q6P2H3) was inactive: -0.035; that for CDC34 (UniProt P49427) was inactive: 0.
Still for that read-out and setting: the value for CENPU (UniProt Q71F23) was inactive: 0.019; that for CENPK (UniProt Q9BS16) was inactive: -0.052; that for CDK1 (UniProt P06493) was inactive: -0.022.
With CEP44 (UniProt Q9C0F1), the log2 fold change is inactive: -0.066.
The same measure, in the same setting: next, CDC42BPA isoform 6 (UniProt Q5VT25): inactive: 0.03; CEP76 (UniProt Q8TAP6): inactive: 0.027; CEP120 (UniProt Q8N960): inactive: 0.129.
As for CDC45 isoform 3 (UniProt O75419), the log2 fold change is inactive: -0.018.
In the case of CDC37 (UniProt Q16543), the log2 fold change is inactive: -0.07.
The same measure, in the same setting: next, CEP97 (UniProt Q8IW35): inactive: 0.027; CDC5L (UniProt Q99459): inactive: -0.01; CDR2 (UniProt Q01850): inactive: 0.03.
Still for that read-out and setting: the value for CFAP36 (UniProt Q96G28) was inactive: -0.042; that for CERT isoform 3 (UniProt Q9Y5P4) was inactive: 0.049.
Still for that read-out and setting: next, CDAN1 (UniProt Q8IWY9): inactive: 0.051.
As to CES2 isoform 4 (UniProt O00748), the log2 fold change was inactive: 0.036.
The same measure, in the same setting: the value for CDK5 (UniProt Q00535) was inactive: -0.023.
On the same count and under the same terms, next, CHAC2 (UniProt Q8WUX2): inactive: -0.198; CDK12 (UniProt Q9NYV4): inactive: 0.031; CDC73 (UniProt Q6P1J9): inactive: -0.031.
Same read-out and setting: the value for CDK6 (UniProt Q00534) was inactive: -0.035; that for CDK7 (UniProt P50613) was inactive: 0.043.
Consider CDCA5 (UniProt Q96FF9), for which the log2 fold change was inactive: 0.039.
On the same count and under the same terms, next, CERS6 isoform 2 (UniProt Q6ZMG9): inactive: 0.001.
Same read-out and setting: next, CFAP298 (UniProt P57076): inactive: 0.034; CDK5RAP3 isoform 4 (UniProt Q96JB5): inactive: 0.211; CELF2 isoform 3 (UniProt O95319): inactive: -0.124.
